# Values of other authors as cited in patent US20190187148A1, “BIOMOLECULAR INTERACTION DETECTION DEVICES AND METHODS” (The Regents of the University of California, priority 2013, published 2019).
# At least one structure is not confirmed: it was looked up by name or label, or the drawing left a doubt.
# Details: cited from earlier work
smiles,measurement,value
"NC(=O)C1=CN([C@@H]2O[C@H](COP(=O)(O)OP(=O)(O)OC[C@H]3O[C@@H](n4cnc5c(N)ncnc54)[C@H](O)[C@@H]3O)[C@@H](O)[C@H]2O)C=CC1 [NADH, nicotinamide adenine dinucleotide]",diffusivity,2×10^−6 cm^2/s
